According to patent US20220356210A1, “A SERIES OF INJECTABLE HYDROGELS SELF-ASSEMBLED FROM SHORT PEPTIDES FOR VARIOUS BIOMEDICAL APPLICATIONS” (Agency for Science, Technology and Research, priority 2019, published 2022):
Values joined by “and” are separate entries in the source; they are usually repeats but may differ in a detail not shown here. Identical values can stand only once. Like-named read-outs stand apart in the source and are kept apart here. At least one peptide structure holds a part that was inferred or is arguable (an end, a ring closure or a residue). For some assays here: At least one read-out could not be matched to a standard name with certainty. No end group written: not given here.

Experiments:
BT-474 cells = assay: Cell growth in 3D peptide hydrogel (MTT); type: cell-based, human; conditions: 3D encapsulation
MCF-7 cells = assay: Cell proliferation on the surface of peptide hydrogel (MTT); type: cell-based, human; conditions: 2D culture
[1] = CD spectra of peptide amphiphiles; type: physicochemical; conditions: 1.0 mg/mL, with addition of salt (PBS pH 7.4), room temperature
Procedure: CD measurements were performed with a Jasco Model J-810 spectropolarimeter (Jasco, Great Dunmow, Essex, UK) using a quartz cuvette with 1 mm pathlength (Hellma, Germany). Spectra were recorded (average of 3 scans) from 240 to 190 nm at a scan speed of 50 nm/min. The ellipticity was derived from the formula: [θ]λ=(M/(N−1)×θλ)/(d×c), where θλ represents observed ellipticity (degrees) at wavelength λ, d represents pathlength (cm), c represents the concentration (g/mL), and [θ]λ represents residue ellipticity (deg cm^2 dmol^−1). Thermal scans were measured with Jasco Model J-810 spectropolarimeter equipped with a peltier temperature controller. The solution was allowed to reach equilibrium for 10 min at room temperature prior to testing.

[2] = Gelation by vial tilting method; type: physicochemical
Procedure: The peptide powder was dissolved in water or other aqueous solutions at the required concentrations. Alternatively, the required salt may be added after the peptide aqueous solution is prepared. The hydrogel was formed by mixing the peptide aqueous solution and salt (if required). For example, the solution was vortexed and then incubated to form hydrogel. The hydrogel formed may be stored as formed, or may be dried, for example by freeze drying. Alternatively, the hydrogel may be formed as required. The gelation time was determined by the vial tilting method. […] Rheology experiments were performed at room temperature using a control-strain rheometer (ARES G2, TA instruments). The rheometer is equipped with two sensitive force transducers for torque ranging from 0.05 μN·m to 200 mN·m. The peptide powder was dissolved in water at concentrations ranging from 1.0 to 2.0 (w/v) %. The solution was vortexed and then incubated to form hydrogel. The gel was placed onto parallel-plate geometry (8 mm in diameter). The dynamic storage modulus (G′) and loss modulus (G″) were examined as a function of frequency from 1 to 100 rad/s. The measurements were carried out at a strain amplitude (y) to ensure the linearity of viscoelasticity. Flow sweep (viscosity changes as a function of shear rate) was also performed to study shear thinning properties of hydrogels.

[3] = type: physicochemical; conditions: with DMEM
[4] = Flow sweep of viscosity as a function of shear rate; type: physicochemical; conditions: 1.5 (w/v) % in water
[5] = Rheology, G′ and G″ at frequency of 1 Hz; type: physicochemical; conditions: for G′ (storage modulus) / G″ (loss modulus): 1 Hz
Procedure: The gelation time was determined by the vial tilting method. […] Rheology experiments were performed at room temperature using a control-strain rheometer (ARES G2, TA instruments). The rheometer is equipped with two sensitive force transducers for torque ranging from 0.05 μN·m to 200 mN·m. […] The solution was vortexed and then incubated to form hydrogel. The gel was placed onto parallel-plate geometry (8 mm in diameter). The dynamic storage modulus (G′) and loss modulus (G″) were examined as a function of frequency from 1 to 100 rad/s. The measurements were carried out at a strain amplitude (y) to ensure the linearity of viscoelasticity. Flow sweep (viscosity changes as a function of shear rate) was also performed to study shear thinning properties of hydrogels.

[6] = Dynamic step strain amplitude test; type: physicochemical; conditions: for G′ value at high strain: strain 100%; for Initial G′ value: strain of 0.5%
Text: The reduction of viscosity was attributed to the disruption of physical cross-links between the peptide molecules upon the application of shear stress. In order for a peptide gel construct containing a drug and/or cell/s to be delivered by syringe, it is essential that the disrupted gel with low viscosity could rapidly recover back into a stiff gel when the shear stress terminates. The ability of the peptide hydrogels to recover was investigated using a dynamic step strain amplitude test, where strain of 0.5% and 100% were periodically applied on the peptide hydrogels. […] After subjected 30 s of continuous high strain, the strain was reduced to 0.5%. […] This reversibility of peptide hydrogel in the presence of DMEM was further evaluated under the same conditions. […] The G′ value is reduced remarkably by ˜2000 times to ˜1 Pa when subjected a high stain of 100%. […] A similar phenomenon was also observed for IIK12 hydrogel, where the storage moduli of IIK12 hydrogel increased with increasing peptide concentrations (Table 5). […] This rheological behavior of the peptide hydrogels offers a great advantage for use as an injectable matrix for delivery of therapeutics such as drugs and cells. The fast recovery kinetics can be explained by the fact that the physical cross-links of the gel network immediately recovered after the high strain terminated.

MRSA = conditions: clinically isolated MRSA; cited from earlier work
VRE = conditions: clinically isolated VRE; cited from earlier work
A. baumannii = conditions: clinically isolated multidrug-resistant A. baumannii; cited from earlier work
C. neoformans = conditions: clinically isolated yeast C. neoformans; cited from earlier work
[7] = antimicrobial peptide alone; cited from earlier work
P. aeruginosa = conditions: clinically isolated multidrug-resistant P. aeruginosa; cited from earlier work
[8] = peptide conc. 2.0 %, listed as IEVEIRVK
[9] = 1.0 wt %, gelation temp. R.T., H2O
[10] = 1.5 wt %, gelation temp. 37 °C, DMEM
[11] = 1.5 wt %, gelation temp. 37 °C, H2O
[12] = 1.5 wt %, gelation temp. 37 °C, PBS
[13] = 1.5 wt %, gelation temp. R.T., H2O
[14] = 1.75 wt %, gelation temp. R.T., H2O
[15] = 2.0 wt %, gelation temp. 37 °C, DMEM
[16] = 2.5 wt %, gelation temp. 37 °C, PBS
[17] = in the presence of DMEM, 1.5 (w/v) %

For IEVEIRVK-NH2 [IVK8, IEVEIRVK], the “Cell number in the hydrogels at day 4 vs day 1” value (BT-474 cells) was “almost one fold higher”, the “Proliferation rate on hydrogel surface” value (MCF-7 cells) was “depended on cell seeding density” and the “Molecular ellipticity (θM) at the minimum point” value [1] was −11.2 deg.cm^2dmol^−1. For the same substance, the “Concentration to form the gel” value ([2]; in the presence of a salt) was 0.6 % w/v, the “Gel appearance, gelation in DI water at R.T.” value (“Gel appearance, gelation” below) ([2]; peptide conc. 1.0 %) was “clear” and the “Gelation in DI water at 37° C. (via tilting), time” value ([2]; peptide conc. 1.0 %) was 2900 min. For the same substance, the “Gelation in DI water at R.T. (via tilting), time” value ([2]; peptide conc. 1.0 %) was 3 days,, the “Gel appearance, gelation” value ([2]; peptide conc. 1.5 %) was “clear” and the “Gelation in DI water at 37° C. (via tilting)” value ([2]; peptide conc. 1.5 %) was “overnight”. The “Gelation in DI water at R.T. (via tilting), time” value ([2]; peptide conc. 1.5 %) was 1 day,, the “Gel appearance, gelation” value ([2]; peptide conc. 2.0 %) was “clear” and the “Gelation in DI water at 37° C. (via tilting), time” value ([2]; peptide conc. 2.0 %) was ≤ 30 min. For the same substance, the “Gelation in DI water at R.T. (via tilting), time” value ([2]; peptide conc. 2.0 %) was ≤ 60 min, the “Gelation in DI water at 37° C. (via tilting), time” value [2, 8] was 30 min and the “Gelation in DI water at R.T. (via tilting), time” value [2, 8] was 60 min,. The “Minimum concentration to form the gel” value ([2]; without the presence of a salt) was 1.0 % w/v, the “Time the hydrogels were stable” value ([3]; higher concentration peptide hydrogel) was “at least 15 days” and the “Time the hydrogels were stable” value ([3]; most of the hydrogels) was “at least 7 days”. For the same substance, the “Viscosity with increasing shear rate” value [4] was “reduced significantly”, the “G′ (storage modulus)” value [5, 9] was 23 Pa and the “G″ (loss modulus)” value [5, 9] was 3 Pa. The “G′ in DMEM relative to that in the absence of DMEM” value ([5]; 1.5%) was ~5 fold, the “G′ in PBS relative to that in the absence of salt” value ([5]; 1.5%) was ~2 fold and the “G′ (storage modulus)” value [5, 10] was ~2400 Pa and 2353 Pa. The “G″ (loss modulus)” value [5, 10] was 904 Pa, the “G′ (storage modulus)” value [5, 11] was 489 Pa and the “G″ (loss modulus)” value [5, 11] was 15 Pa. For the same substance, the “G′ (storage modulus)” value [5, 12] was ~900 Pa and 892 Pa, the “G″ (loss modulus)” value [5, 12] was 90 Pa and the “G′ (storage modulus)” value [5, 13] was 84 Pa. For the same substance, the “G″ (loss modulus)” value [5, 13] was 8 Pa, the “G′ (storage modulus)” value [5, 14] was 282 Pa and the “G″ (loss modulus)” value [5, 14] was 41 Pa. For the same substance, the “G′ (storage modulus)” value [5, 15] was 5347 Pa, the “G″ (loss modulus)” value [5, 15] was 1555 Pa and the “Hydrogel rigidity (G′)” value ([5]; 2.5%, in PBS) was 10 kPa. For the same substance, the “G′ (storage modulus)” value [5, 16] was 10108 Pa, the “G″ (loss modulus)” value [5, 16] was 2253 Pa and the “G′ value at 1.75% relative to that at 1.0%” value ([5]; H2O, R.T.) was 10 fold. For the same substance, the “Recovery of G′ when strain decreased to 0.5%” value [6, 17] was “recovered immediately”, the “Reduction of G′ at high strain” value ([6]; strain 100% vs 0.5%, in the presence of DMEM) was ~2000 times and the “Decrease of G′ at high strain” value ([6]; strain 100% vs 0.5%, water, 1.5 (w/v) %) was ~250 fold. The “G′ value at high strain” value [6, 17] was ~1 Pa, the “G′ value at high strain” value ([6]; water, 1.5 (w/v) %) was 0.2 Pa and the “Initial G′ value” [6, 17] was ~2000 Pa. For the same substance, the “Initial G′ value” ([6]; water, 1.5 (w/v) %) was ~50 Pa and the “Recovery of G′ when strain reduced to 0.5%” value ([6]; water, 1.5 (w/v) %, after 30 s of high strain) was “recovered immediately”.

In the case of IRIKIRIK-NH2 [IK8L, IRIKIRIK], the MIC (MRSA) is given as 31.3 µg/mL, the MIC (VRE) is given as 15.6 µg/mL and the MIC (A. baumannii) is given as 12.5 µg/mL. For the same substance, the MIC (C. neoformans) was 7.8 µg/mL, the “Peptide concentration at which a hydrogel forms” value [7] was 8 w/v % and the MIC (P. aeruginosa) was 7.8 µg/mL.
